Test results published in the supplement of paper PMC12067093, “Discovery and optimisation of a covalent ligand for TRIM25 and its application to targeted protein ubiquitination” (Chemical Science, 2025).
This is one part of the list.

Chains of the proteins cited; added tags and fusions are not shown. Lines headed by an entry give the natural chain unless they say otherwise; changes in a name come on top.
UniProt Q8IX12: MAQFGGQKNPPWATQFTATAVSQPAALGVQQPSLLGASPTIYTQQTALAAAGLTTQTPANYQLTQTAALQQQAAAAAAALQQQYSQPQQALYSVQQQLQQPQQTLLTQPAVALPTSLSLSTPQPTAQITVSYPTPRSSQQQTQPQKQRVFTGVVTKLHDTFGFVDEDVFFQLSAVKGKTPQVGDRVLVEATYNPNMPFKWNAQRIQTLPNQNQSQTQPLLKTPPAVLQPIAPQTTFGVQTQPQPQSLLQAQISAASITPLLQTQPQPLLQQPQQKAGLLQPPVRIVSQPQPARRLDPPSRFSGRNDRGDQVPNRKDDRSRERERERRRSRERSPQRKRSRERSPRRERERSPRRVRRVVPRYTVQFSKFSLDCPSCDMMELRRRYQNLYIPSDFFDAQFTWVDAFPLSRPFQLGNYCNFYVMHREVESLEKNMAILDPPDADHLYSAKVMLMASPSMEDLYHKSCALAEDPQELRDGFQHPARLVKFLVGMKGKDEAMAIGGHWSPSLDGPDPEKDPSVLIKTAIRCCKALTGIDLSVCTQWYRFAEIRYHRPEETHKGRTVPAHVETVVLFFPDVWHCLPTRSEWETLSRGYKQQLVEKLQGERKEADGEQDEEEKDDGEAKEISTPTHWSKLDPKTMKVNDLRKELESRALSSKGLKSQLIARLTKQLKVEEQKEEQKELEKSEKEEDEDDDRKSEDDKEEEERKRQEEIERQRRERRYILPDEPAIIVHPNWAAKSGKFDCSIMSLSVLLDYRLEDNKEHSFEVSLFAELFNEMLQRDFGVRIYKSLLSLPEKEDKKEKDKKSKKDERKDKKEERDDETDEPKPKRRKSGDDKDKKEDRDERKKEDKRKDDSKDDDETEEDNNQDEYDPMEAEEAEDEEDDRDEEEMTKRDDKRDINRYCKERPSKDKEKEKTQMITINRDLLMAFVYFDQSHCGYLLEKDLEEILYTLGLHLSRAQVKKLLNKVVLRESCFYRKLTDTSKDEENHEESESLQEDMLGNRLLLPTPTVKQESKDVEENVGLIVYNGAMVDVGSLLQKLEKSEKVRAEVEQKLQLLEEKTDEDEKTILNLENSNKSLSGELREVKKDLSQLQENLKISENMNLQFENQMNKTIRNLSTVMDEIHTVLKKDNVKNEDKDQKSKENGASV
UniProt Q96LW7: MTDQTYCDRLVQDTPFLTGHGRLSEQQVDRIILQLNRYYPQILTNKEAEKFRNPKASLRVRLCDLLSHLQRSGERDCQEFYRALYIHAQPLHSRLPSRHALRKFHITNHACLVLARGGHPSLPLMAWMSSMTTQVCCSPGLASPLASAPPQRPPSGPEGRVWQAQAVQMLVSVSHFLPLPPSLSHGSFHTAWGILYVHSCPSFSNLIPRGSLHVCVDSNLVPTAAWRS
UniProt Q92851: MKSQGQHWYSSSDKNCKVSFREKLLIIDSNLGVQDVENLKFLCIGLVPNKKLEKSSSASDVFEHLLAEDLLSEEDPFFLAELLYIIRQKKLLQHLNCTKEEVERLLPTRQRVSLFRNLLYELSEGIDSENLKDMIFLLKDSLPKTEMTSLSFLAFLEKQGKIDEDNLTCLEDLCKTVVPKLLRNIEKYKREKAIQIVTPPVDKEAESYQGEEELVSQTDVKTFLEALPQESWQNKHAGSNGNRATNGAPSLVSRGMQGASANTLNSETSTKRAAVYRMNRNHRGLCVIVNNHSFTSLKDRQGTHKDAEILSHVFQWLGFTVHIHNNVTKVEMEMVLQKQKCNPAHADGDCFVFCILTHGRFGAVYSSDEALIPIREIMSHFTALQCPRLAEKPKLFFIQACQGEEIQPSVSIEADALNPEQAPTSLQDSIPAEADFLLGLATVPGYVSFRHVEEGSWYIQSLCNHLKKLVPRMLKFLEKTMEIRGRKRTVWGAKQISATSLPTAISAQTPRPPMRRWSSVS
UniProt P17655: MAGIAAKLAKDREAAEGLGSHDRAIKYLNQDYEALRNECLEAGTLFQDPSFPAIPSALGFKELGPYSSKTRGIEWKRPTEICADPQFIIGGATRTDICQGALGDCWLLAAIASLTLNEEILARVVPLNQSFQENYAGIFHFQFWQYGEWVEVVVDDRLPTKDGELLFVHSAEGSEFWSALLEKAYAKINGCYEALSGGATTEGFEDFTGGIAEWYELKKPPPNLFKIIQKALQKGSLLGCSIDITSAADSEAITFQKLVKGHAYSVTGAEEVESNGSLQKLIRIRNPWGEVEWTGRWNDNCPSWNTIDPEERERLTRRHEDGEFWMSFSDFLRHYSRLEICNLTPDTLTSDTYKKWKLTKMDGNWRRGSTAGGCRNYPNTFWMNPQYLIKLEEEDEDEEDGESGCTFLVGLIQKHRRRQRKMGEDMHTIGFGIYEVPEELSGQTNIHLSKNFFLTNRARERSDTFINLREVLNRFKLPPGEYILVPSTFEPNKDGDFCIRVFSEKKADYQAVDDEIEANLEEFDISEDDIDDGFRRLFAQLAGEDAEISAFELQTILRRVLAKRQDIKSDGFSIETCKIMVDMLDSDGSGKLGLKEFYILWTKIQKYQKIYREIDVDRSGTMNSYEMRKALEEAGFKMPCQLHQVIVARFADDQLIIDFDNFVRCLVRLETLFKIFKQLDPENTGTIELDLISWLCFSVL
UniProt P49589: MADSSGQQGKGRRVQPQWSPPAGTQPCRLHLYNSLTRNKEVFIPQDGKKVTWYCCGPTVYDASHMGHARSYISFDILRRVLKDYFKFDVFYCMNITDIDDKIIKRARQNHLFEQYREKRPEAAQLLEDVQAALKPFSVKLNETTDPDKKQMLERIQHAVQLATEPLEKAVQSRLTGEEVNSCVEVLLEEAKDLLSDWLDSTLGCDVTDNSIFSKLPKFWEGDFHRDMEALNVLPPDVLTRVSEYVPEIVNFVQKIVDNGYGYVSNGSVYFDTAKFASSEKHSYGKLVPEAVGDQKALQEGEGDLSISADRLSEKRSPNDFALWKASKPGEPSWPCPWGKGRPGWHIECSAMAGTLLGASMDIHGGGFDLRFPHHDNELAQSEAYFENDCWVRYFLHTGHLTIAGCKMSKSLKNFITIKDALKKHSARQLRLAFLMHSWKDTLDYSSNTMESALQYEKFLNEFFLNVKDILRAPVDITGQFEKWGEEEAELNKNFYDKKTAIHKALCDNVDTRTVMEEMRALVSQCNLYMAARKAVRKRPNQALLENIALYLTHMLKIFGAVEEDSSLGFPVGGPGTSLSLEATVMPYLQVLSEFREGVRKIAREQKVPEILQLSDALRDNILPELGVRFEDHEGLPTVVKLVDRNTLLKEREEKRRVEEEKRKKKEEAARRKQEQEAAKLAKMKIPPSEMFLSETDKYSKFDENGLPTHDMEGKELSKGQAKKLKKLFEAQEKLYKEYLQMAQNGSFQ
UniProt P04040: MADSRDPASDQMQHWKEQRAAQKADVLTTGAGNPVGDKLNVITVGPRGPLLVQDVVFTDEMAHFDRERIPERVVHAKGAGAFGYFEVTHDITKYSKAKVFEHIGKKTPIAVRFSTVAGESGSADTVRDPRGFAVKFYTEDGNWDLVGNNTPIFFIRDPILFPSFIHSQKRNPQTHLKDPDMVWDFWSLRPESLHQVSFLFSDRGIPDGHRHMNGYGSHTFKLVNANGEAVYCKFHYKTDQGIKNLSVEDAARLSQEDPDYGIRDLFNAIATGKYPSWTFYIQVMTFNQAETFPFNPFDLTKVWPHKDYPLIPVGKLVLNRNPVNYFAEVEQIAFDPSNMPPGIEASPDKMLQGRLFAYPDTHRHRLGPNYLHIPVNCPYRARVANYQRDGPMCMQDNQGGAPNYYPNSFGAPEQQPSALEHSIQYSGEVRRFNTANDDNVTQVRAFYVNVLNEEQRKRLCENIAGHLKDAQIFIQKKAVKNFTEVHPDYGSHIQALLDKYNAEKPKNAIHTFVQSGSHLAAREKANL
UniProt Q9H257: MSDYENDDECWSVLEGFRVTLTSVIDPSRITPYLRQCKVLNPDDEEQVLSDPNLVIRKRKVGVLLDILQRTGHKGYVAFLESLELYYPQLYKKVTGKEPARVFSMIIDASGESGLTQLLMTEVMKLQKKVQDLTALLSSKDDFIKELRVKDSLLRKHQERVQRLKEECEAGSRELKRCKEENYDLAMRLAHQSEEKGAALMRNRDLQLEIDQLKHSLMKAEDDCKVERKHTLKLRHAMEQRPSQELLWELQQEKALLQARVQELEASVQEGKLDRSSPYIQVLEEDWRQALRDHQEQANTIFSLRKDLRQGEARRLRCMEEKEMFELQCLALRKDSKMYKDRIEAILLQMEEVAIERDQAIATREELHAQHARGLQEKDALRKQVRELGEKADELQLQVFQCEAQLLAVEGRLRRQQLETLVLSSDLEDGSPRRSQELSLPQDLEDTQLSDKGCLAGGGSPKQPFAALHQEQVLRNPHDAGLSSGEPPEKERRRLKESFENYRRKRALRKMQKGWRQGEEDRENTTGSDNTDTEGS
UniProt P50991: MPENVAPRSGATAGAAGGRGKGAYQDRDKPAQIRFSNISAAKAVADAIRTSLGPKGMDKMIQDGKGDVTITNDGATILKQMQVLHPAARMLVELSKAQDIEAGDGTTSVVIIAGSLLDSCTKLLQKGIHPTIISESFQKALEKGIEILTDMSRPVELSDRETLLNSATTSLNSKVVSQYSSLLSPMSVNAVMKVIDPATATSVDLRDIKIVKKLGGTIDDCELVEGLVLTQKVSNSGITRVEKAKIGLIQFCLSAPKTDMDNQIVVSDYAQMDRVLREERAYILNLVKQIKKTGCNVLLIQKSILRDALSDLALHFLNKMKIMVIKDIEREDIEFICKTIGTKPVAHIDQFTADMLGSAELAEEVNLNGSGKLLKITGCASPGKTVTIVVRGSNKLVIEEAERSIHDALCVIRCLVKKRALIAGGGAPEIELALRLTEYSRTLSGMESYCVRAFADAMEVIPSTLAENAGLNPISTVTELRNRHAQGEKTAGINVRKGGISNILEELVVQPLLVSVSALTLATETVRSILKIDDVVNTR
UniProt Q4VC31: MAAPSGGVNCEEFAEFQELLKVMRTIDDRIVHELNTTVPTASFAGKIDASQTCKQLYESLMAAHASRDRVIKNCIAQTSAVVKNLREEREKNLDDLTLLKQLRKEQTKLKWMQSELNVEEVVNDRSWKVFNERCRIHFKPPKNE
UniProt Q9BWC9: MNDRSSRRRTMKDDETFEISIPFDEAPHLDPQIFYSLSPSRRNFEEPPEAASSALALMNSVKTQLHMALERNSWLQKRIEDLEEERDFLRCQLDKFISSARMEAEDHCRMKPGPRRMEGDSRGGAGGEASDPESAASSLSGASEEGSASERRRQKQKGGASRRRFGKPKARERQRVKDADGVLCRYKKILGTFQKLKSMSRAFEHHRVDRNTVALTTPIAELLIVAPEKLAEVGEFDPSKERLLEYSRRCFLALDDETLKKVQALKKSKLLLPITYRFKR
UniProt P42575: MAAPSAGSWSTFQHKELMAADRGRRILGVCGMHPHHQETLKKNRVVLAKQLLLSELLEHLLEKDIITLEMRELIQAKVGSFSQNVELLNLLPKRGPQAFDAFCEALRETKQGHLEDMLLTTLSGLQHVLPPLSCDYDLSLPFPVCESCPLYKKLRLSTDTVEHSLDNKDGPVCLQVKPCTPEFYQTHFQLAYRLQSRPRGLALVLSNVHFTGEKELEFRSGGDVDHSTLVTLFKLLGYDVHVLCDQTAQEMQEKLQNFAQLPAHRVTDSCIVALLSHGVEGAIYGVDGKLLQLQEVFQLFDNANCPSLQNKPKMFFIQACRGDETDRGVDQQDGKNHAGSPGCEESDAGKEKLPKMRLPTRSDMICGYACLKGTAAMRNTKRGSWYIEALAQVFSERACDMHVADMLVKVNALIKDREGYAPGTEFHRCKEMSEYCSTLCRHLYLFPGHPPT
UniProt P42574: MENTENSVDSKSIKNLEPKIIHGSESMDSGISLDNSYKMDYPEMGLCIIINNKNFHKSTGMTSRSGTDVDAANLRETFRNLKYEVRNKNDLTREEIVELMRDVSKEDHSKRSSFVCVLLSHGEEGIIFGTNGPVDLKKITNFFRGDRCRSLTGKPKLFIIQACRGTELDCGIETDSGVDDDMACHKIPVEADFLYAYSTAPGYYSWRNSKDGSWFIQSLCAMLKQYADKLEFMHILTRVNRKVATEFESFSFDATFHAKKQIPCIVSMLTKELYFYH
UniProt Q96A33: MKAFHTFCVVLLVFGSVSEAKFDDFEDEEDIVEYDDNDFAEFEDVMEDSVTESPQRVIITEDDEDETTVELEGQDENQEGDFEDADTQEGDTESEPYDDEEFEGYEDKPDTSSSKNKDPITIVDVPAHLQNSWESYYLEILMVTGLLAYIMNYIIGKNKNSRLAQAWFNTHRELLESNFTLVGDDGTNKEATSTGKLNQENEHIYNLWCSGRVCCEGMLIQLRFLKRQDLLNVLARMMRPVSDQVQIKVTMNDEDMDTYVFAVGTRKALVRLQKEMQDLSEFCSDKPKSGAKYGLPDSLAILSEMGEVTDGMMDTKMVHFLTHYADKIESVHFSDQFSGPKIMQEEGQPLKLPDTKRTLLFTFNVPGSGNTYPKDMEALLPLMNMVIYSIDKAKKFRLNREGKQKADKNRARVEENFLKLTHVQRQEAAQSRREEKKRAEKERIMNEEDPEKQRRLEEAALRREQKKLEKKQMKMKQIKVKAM

Compound: CC1Cc2ccccc2N1C(=O)C1CCCN(C1)C(=O)CCl (mixture of isomers) [TRIM25 ligand 11 (diastereomer mixture)]
Experiment: probe-labelled cysteine peptide fold change vs DMSO (competition) (log2 fold change); higher = less target engagement (more negative = stronger competition)
Details: 10 µM; THP-1; incubation time: 4 h
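Note: competitive chemoproteomic profiling in live THP-1 cells with an iodoacetamide desthiobiotin (IA-DTB) probe, comparing probe-labelled peptide intensities in compound-treated cells against DMSO-treated controls.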

Row | Target | probe-labelled cysteine peptide fold change
1 | CAST_P20810_381_SESELIDELSEDFDRSECK (UniProt P20810) | -0.0782
2 | CBR1_P16152_122_DVCTELLPLIKPQGR (UniProt P16152) | -0.126
3 | CASP1_P29466_362_LIEHMQEYACSCDVEEIFRK (UniProt P29466) | -0.0544
4 | CCAR1_Q8IX12_579_TVPAHVETVVLFFPDVWHCLPTR (UniProt Q8IX12) | -0.248
5 | CCAR1_Q8IX12_744_SGKFDCSIMSLSVLLDYR (UniProt Q8IX12) | 0.105
6 | CCS_O14618_113_CLIEGTIDGLEPGLHGLHVHQYGDLTNNCNSCGNHFNPDGASHGGPQDSDR (UniProt O14618) | -0.0799
7 | CCNA2_P20248_390_TGYTLESLKPCLMDLHQTYLK (UniProt P20248) | 0.156
8 | CAPRIN1_Q14444_226_PVCGTTYK (UniProt Q14444) | -0.0226
9 | CARD19_Q96LW7_77_DCQEFYR (UniProt Q96LW7) | -0.0317
10 | CCDC88B_A6NC98_1228_LTTQCELLTQLR (UniProt A6NC98) | 0.0742
11 | CASP10_Q92851_341+350_CNPAHADGDCFVFCILTHGR (UniProt Q92851) | -0.021
12 | CAPZA2_P47755_111_KEATDPRPCEVENAVESWR (UniProt P47755) | -0.0477
13 | CAPN2_P17655_301_WNDNCPSWNTIDPEER (UniProt P17655) | 0.0959
14 | CCL5_P13501_73_QVCANPEK (UniProt P13501) | -0.256
15 | CASP7_P55210_70_CIIINNK (UniProt P55210) | 0.00656
16 | CAPN2_P17655_82_RPTEICADPQFIIGGATR (UniProt P17655) | 0.0181
17 | CAPZB_P47756_62_DYLLCDYNR (UniProt P47756) | -0.0337
18 | CARS_P49589_27_VQPQWSPPAGTQPCR (UniProt P49589) | -0.0897
19 | CAT_P04040_232_LVNANGEAVYCK (UniProt P04040) | 0.119

Row | Target | probe-labelled cysteine peptide fold change
20 | CARD9_Q9H257_329_EMFELQCLALRK (UniProt Q9H257) | -0.507
21 | CCNY_Q8ND76_39_EDTGCNLQHISDRENIDDLNMEFNPSDHPR (UniProt Q8ND76) | 0.0996
22 | CCT4_P50991_120_AQDIEAGDGTTSVVIIAGSLLDSCTK (UniProt P50991) | -4.03e-05
23 | CCNB2_O95067_314_VAAAASCLSQK (UniProt O95067) | 0.054
24 | CAPN1_P07384_677_YSEPDLAVDFDNFVCCLVR (UniProt P07384) | 0.404
25 | CAPZA1_P52907_157_TIDGQQTIIACIESHQFQPK (UniProt P52907) | 0.0818
26 | CARS_P49589_389_FPHHDNELAQSEAYFENDCWVR (UniProt P49589) | 0.238
27 | CCAR2_Q8N163_324_CCMLFVDDMAEPR (UniProt Q8N163) | -0.0215
28 | CCDC58_Q4VC31_10_AAPSGGVNCEEFAEFQELLK (UniProt Q4VC31) | -0.0916
29 | CCDC106_Q9BWC9_184_DADGVLCR (UniProt Q9BWC9) | 0.013
30 | CCS_O14618_246_QICSCDGLTIWEER (UniProt O14618) | -0.0875
31 | CASP10_Q92851_169_QGKIDEDNLTCLEDLCK (UniProt Q92851) | 0.00628
32 | CARS_P49589_182_LTGEEVNSCVEVLLEEAK (UniProt P49589) | -0.0351
33 | CASP2_P42575_173+179_DGPVCLQVKPCTPEFYQTHFQLAYR (UniProt P42575) | -0.13
34 | CASP3_P42574_264_KQIPCIVSMLTK (UniProt P42574) | -0.0541
35 | CAP1_Q01518_427_NSLDCEIVSAK (UniProt Q01518) | -0.0214
36 | CARD9_Q9H257_454_GCLAGGGSPK (UniProt Q9H257) | -0.119
37 | CCDC47_Q96A33_283_EMQDLSEFCSDKPK (UniProt Q96A33) | 0.0239
38 | CCDC47_Q96A33_209_LNQENEHIYNLWCSGR (UniProt Q96A33) | 0.0321

Looked up one by one from the entries so far, three records:
Row | Target | probe-labelled cysteine peptide fold change
22 | CCT4_P50991_120_AQDIEAGDGTTSVVIIAGSLLDSCTK (UniProt P50991) | -4.03e-05
33 | CASP2_P42575_173+179_DGPVCLQVKPCTPEFYQTHFQLAYR (UniProt P42575) | -0.13
29 | CCDC106_Q9BWC9_184_DADGVLCR (UniProt Q9BWC9) | 0.013
